Results are given in words; binding and its absence hold for the method and conditions named. For part of these data: Binding calls can cover weak binding; strength is not graded here.
Legend:
B57,Bw4_B*57:01 (human) = assay: LABScreen beads, 10 µg/ml antibody
Cw14_C*14:02 (human) = assay: LABScreen beads, 10 µg/ml antibody
Cw8_C*08:01 (human) = assay: LABScreen beads, 10 µg/ml antibody
Cw15_C*15:02 (human) = assay: LABScreen beads, 10 µg/ml antibody
B65,Bw6_B*14:02 (human) = assay: LABScreen beads, 10 µg/ml antibody
B27,Bw6_B*27:08 (human) = assay: LABScreen beads, 10 µg/ml antibody
B57,Bw4_B*57:03 (human) = assay: LABScreen beads, 10 µg/ml antibody
B52,Bw4_B*52:01 (human) = assay: LABScreen beads, 10 µg/ml antibody
Cw10_C*03:02 (human) = assay: LABScreen beads, 10 µg/ml antibody
B61,Bw6_B*40:06 (human) = assay: LABScreen beads, 10 µg/ml antibody
B59,Bw4_B*59:01 (human) = assay: LABScreen beads, 10 µg/ml antibody
B78,Bw6_B*78:01 (human) = assay: LABScreen beads, 10 µg/ml antibody
B77,Bw4_B*15:13 (human) = assay: LABScreen beads, 10 µg/ml antibody
B18,Bw6_B*18:01 (human) = assay: LABScreen beads, 10 µg/ml antibody
[1] = target: Cw7_C*07:02 (human), C*07:0; assay: LABScreen beads, 10 µg/ml antibody
B35,Bw6_B*35:01 (human) = assay: LABScreen beads, 10 µg/ml antibody
Cw5_C*05:01 (human) = assay: LABScreen beads, 10 µg/ml antibody
Cw16_C*16:01 (human) = assay: LABScreen beads, 10 µg/ml antibody
B54,Bw6_B*54:01 (human) = assay: LABScreen beads, 10 µg/ml antibody
B37,Bw4_B*37:01 (human) = assay: LABScreen beads, 10 µg/ml antibody
B75,Bw6_B*15:11 (human) = assay: LABScreen beads, 10 µg/ml antibody
Cw12_C*12:03 (human) = assay: LABScreen beads, 10 µg/ml antibody
[2] = target: Cw6_C*06:02 (human), C*06:0; assay: LABScreen beads, 10 µg/ml antibody
B38,Bw4_B*38:01 (human) = assay: LABScreen beads, 10 µg/ml antibody
B67,Bw6_B*67:01 (human) = assay: LABScreen beads, 10 µg/ml antibody
B51,Bw4_B*51:01 (human) = assay: LABScreen beads, 10 µg/ml antibody
Cw2_C*02:02 (human) = assay: LABScreen beads, 10 µg/ml antibody
[3] = target: B27,Bw4_B*27:05 (human), B*27:0; assay: LABScreen beads, 10 µg/ml antibody
Cw1_C*01:02 (human) = assay: LABScreen beads, 10 µg/ml antibody
B53,Bw4_B*53:01 (human) = assay: LABScreen beads, 10 µg/ml antibody
Cw9_C*03:03 (human) = assay: LABScreen beads, 10 µg/ml antibody
B63,Bw4_B*15:16 (human) = assay: LABScreen beads, 10 µg/ml antibody
B49,Bw4_B*49:01 (human) = assay: LABScreen beads, 10 µg/ml antibody
B8,Bw6_B*08:01 (human) = assay: LABScreen beads, 10 µg/ml antibody
B44,Bw4_B*44:03 (human) = assay: LABScreen beads, 10 µg/ml antibody
B13,Bw4_B*13:02 (human) = assay: LABScreen beads, 10 µg/ml antibody
B58,Bw4_B*58:01 (human) = assay: LABScreen beads, 10 µg/ml antibody
B55,Bw6_B*55:01 (human) = assay: LABScreen beads, 10 µg/ml antibody
Cw4_C*04:01 (human) = assay: LABScreen beads, 10 µg/ml antibody
Cw17_C*17:01 (human) = assay: LABScreen beads, 10 µg/ml antibody
B64,Bw6_B*14:01 (human) = assay: LABScreen beads, 10 µg/ml antibody
B51,Bw4_B*51:02 (human) = assay: LABScreen beads, 10 µg/ml antibody
B75,Bw6_B*15:02 (human) = assay: LABScreen beads, 10 µg/ml antibody
B56,Bw6_B*56:01 (human) = assay: LABScreen beads, 10 µg/ml antibody
Cw18_C*18:02 (human) = assay: LABScreen beads, 10 µg/ml antibody
Cw10_C*03:04 (human) = assay: LABScreen beads, 10 µg/ml antibody
B47,Bw4_B*47:01 (human) = assay: LABScreen beads
B50,Bw6_B*50:01 (human) = assay: LABScreen beads
B71,Bw6_B*15:10 (human) = assay: LABScreen beads
B62,Bw6_B*15:01 (human) = assay: LABScreen beads
B61,Bw6_B*40:02 (human) = assay: LABScreen beads

binding (B57,Bw4_B*57:01 (human)): binds | binding (Cw14_C*14:02 (human)): binds | binding (Cw8_C*08:01 (human)): binds | binding (Cw15_C*15:02 (human)): binds | binding (B65,Bw6_B*14:02 (human)): binds | binding (B27,Bw6_B*27:08 (human)): binds | binding (B57,Bw4_B*57:03 (human)): binds | binding (B52,Bw4_B*52:01 (human)): binds | binding (Cw10_C*03:02 (human)): binds | binding (B61,Bw6_B*40:06 (human)): binds | binding (B59,Bw4_B*59:01 (human)): binds | binding (B78,Bw6_B*78:01 (human)): binds | binding (B77,Bw4_B*15:13 (human)): binds | binding (B18,Bw6_B*18:01 (human)): binds | binding [1]: binds | binding (B35,Bw6_B*35:01 (human)): binds | binding (Cw5_C*05:01 (human)): binds | binding (Cw16_C*16:01 (human)): binds | binding (B54,Bw6_B*54:01 (human)): binds | binding (B37,Bw4_B*37:01 (human)): binds | binding (B75,Bw6_B*15:11 (human)): binds | binding (Cw12_C*12:03 (human)): binds | binding [2]: binds | binding (B38,Bw4_B*38:01 (human)): binds | binding (B67,Bw6_B*67:01 (human)): binds | binding (B51,Bw4_B*51:01 (human)): binds | binding (Cw2_C*02:02 (human)): binds | binding [3]: binds | binding (Cw1_C*01:02 (human)): binds | binding (B53,Bw4_B*53:01 (human)): binds | binding (Cw9_C*03:03 (human)): binds | binding (B63,Bw4_B*15:16 (human)): binds | binding (B49,Bw4_B*49:01 (human)): binds | binding (B8,Bw6_B*08:01 (human)): binds | binding (B44,Bw4_B*44:03 (human)): binds | binding (B13,Bw4_B*13:02 (human)): binds | binding (B58,Bw4_B*58:01 (human)): binds | binding (B55,Bw6_B*55:01 (human)): binds | binding (Cw4_C*04:01 (human)): binds | binding (Cw17_C*17:01 (human)): binds | binding (B64,Bw6_B*14:01 (human)): binds | binding (B51,Bw4_B*51:02 (human)): binds | binding (B75,Bw6_B*15:02 (human)): binds | binding (B56,Bw6_B*56:01 (human)): binds | binding (Cw18_C*18:02 (human)): binds | binding (Cw10_C*03:04 (human)): binds | binding (B47,Bw4_B*47:01 (human)): no binding (tested: 10 µg/ml) | binding (B50,Bw6_B*50:01 (human)): no binding (tested: 10 µg/ml) | binding (B71,Bw6_B*15:10 (human)): no binding (tested: 10 µg/ml) | binding (B62,Bw6_B*15:01 (human)): no binding (tested: 10 µg/ml) | binding (B61,Bw6_B*40:02 (human)): no binding (tested: 10 µg/ml)
B1: CW6B228 (antibody, V domains shown)
VH: QVQLQESGPGLVKPSETLSLTCTVSGNSIRSYYWSWIRQPAGKGLEWIGRIYISGNTNYNPSLKSRVTMSIDTSKNQFSLKLSSVTAADTAVYYCARLSGIDAFDIWGQGTMVTVSS
VL: DIQMTQSPSSLSASVGDRVTITCQASQDINNYLNWYQQKPGKAPKLLIYDASSLETGVPSRFSGSGSGTDFTFTISSLQPEDFATYYCQQYDDLPITFGQGTRLEIK
